Source: US20160046678A1 (ZYNGENIA, published 2016)
No constants are given. Whether binding was seen depends on the method and setting. Some binding calls cover weakened binding; strength is not graded here.

Sequences of proteins named here, by UniProt entry; tags and fusion partners are left off. Residues count along the entry.
UniProt P08069, residues 31-932: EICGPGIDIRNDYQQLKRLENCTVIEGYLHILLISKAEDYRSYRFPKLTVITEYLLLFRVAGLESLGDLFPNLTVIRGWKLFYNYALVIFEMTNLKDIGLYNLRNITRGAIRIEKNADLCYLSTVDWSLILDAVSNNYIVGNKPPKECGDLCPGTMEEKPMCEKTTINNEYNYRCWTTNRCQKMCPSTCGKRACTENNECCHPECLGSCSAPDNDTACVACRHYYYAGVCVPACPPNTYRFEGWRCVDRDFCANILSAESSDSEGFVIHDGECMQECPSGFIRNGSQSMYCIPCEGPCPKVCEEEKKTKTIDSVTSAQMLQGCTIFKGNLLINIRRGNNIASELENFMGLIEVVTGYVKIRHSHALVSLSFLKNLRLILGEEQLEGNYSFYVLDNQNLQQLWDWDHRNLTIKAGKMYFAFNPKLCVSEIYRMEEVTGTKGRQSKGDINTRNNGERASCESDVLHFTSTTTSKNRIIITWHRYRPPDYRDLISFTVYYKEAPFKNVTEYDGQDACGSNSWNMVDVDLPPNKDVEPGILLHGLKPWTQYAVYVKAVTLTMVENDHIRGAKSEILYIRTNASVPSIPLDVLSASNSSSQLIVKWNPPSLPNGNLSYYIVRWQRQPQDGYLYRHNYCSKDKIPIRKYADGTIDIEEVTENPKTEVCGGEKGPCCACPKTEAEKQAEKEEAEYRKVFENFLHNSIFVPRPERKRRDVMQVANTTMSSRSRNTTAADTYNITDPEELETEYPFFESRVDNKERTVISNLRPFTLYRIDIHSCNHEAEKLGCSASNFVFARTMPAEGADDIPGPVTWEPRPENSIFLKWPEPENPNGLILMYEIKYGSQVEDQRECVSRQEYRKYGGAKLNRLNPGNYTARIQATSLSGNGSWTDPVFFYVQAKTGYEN

Each binder was assayed against IGF1R (UniProt P08069) (assay: MRD identification, Example 48).

binding, binds:
DLFDCQGLTFYQCLAAL [IGF2027]
EDLGCLYLTFNQCMMWL [IGF2000]
WKEWCVDSDFYTQLCMLAW [IGF2025]
EDLGCMYLTFDECMMWL [IGF2023]
GLDSCQQAYFYQFFCEVFR [IGF2013]
FGQLCDQQVETMIECFERL [IGF2026]
EYKVCTSNDTFHWGICALLK [IGF2022]
LMDFCYVYPNICGCSN [IGF2002]
QSLTCNDFTDWQSLCRC [IGF2030]
FAHECSFHKLNFYQCLSFE [IGF2001]
VSALCEDLEFYECILAL [IGF2016]
TAWCHAAGLTFTQCLLWL [IGF2019]
WDRWCVTEELPEQLCFLDG [IGF2011]
ASHICHLIPTIEQCLFSL [IGF2005]
DVRECEGLTFYECMAAL [IGF2017]
VDMLCQVHGMTFYECLMLL [IGF2009]
WEEWCVDSDFYTQLCLLAW [IGF2010]
SRFVCQHDWGFYECLSML [IGF2004]
LQQICDPEHVTFYQCMTLL [IGF2029]
CEEWCVDSDFYTQLCMLAW [IGF2020]
MSYTCEDFDLPCELCLSLH [IGF2012]
VDMQCQVHGMTFYQCLMRL [IGF2014]
GISECEGLTFYECMAAL [IGF2021]
EDLGCMYLTFYECMIWL [IGF2015]
VISECEGLTFYECMAAL [IGF2006]
